The exact form of at least one protein or probe is not confirmed. A weaker result is weaker than the reference pair of the same experiment. Tags and fusion partners may be left off the protein sequences shown.

The target in the series is T1, QsdR (TetR-family repressor) (Rhodococcus erythropolis R138) (UniProt A0A0C2W9F0).
T1 sequence (looked up): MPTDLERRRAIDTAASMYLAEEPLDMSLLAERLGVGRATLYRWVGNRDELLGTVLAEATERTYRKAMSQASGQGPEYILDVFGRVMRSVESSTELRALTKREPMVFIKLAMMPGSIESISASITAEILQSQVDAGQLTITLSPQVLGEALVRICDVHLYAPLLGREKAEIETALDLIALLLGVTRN
Description: EMSA. As to conditions: homoserine lactone (HSL), ligand/QsdR ratio 0.1-100, free DNA increases with dose; LightShift Chemiluminescent EMSA Kit (Thermo Scientific) as per manufacturer, 20 ul reaction; pH and temperature not stated; recombinant protein; residues 1-186; protein details: His tag (pET19); label: biotin, 5' end; probe letters rebuilt from the primers and the genome. On the technique in general: Mobility shift assays separate free from complexed probe on a gel.

On to “GGTAGGCATCGGGACATTCTCTCCGGTTGTCCGGTACTGCACAATTTCGGCGGTCGAACAGAGGTGGGCTTCGGGTGGCTCGAGCCTATTGACGAACCAAGCGACGTGAGACACACTAGCTCATTGTCTCATGTTAGTGATGGCGATCACAGTCAGGGGTTCGATCGATGAG (double strand)”, for which the binding result is reported as “binds more weakly”.

Values taken from paper PMC6262395, “A Rhodococcal Transcriptional Regulatory Mechanism Detects the Common Lactone Ring of AHL Quorum-Sensing Signals and Triggers the Quorum-Quenching Response” (Frontiers in Microbiology, 2018).
